Reference: PubChem BioAssay AID651640 (Broad Institute, 2012)
Hit rate of the full screen: of about 350,000 compounds, about 6,000 (1.7%) were called active. The shares of active, inactive and inconclusive entries below differ from those in the screen. Rule as the data show it: active = CPE inhibition above about 20% (passing the limit was not always enough); inconclusive = no clear call, values can overlap the other calls; tested in BHK-21 cells.

Test: protection of cells from dengue 2 killing – plate reader, single concentration, primary screen (AID 651640);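 also: 0% = median of neutral control wells and 100% = median of positive control wells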
Conditions: DENV2-infected cells, cytopathic effect rescue, at 9.99 µM, hits give high values

SMILES | CPE inhibition
Cc1noc(C)c1S(=O)(=O)Nc1cccc2c1O[C@H](CN(C)Cc1ccncc1)[C@H](C)CN([C@@H](C)CO)C2=O | inconclusive: 25.2%
Cc1ccc2[nH]c(=O)c(CN(CCCN(C)C)C(=S)NCCc3ccccc3)cc2c1 | inactive: 1.31%
O=C(NCc1ccccc1)c1cc(-c2ccncc2)nc2ccc(S(=O)(=O)N3CCOCC3)cc12 | inactive: -11.2%
Cc1noc(C)c1S(=O)(=O)Nc1ccc2c(c1)C(=O)N([C@@H](C)CO)C[C@H](C)[C@@H](CN(C)Cc1ccccc1)OCCCC[C@@H](C)O2 | inactive: -3.46%
COc1ccc2nc(N3CCN(C(=O)c4ccc5ncsc5c4)CC3)sc2c1 | inconclusive: 30.9%
CC(=O)c1ccc(S(=O)(=O)NCC2CCN(C(=O)C(=O)c3cccs3)CC2)cc1 | inactive: -2.02%
COc1ccc(NC(=O)CCN=C2NS(=O)(=O)c3ccccc32)cc1S(=O)(=O)N(C)C | inconclusive: 29.3%
O=C(Nc1ccccc1)N1CC(=O)N2[C@@H](CO)[C@H](c3ccc(C#Cc4cccnc4)cc3)[C@@H]2C1 | inactive: 0.362%
C[C@H]1CN([C@@H](C)CO)C(=O)Cc2cc(N(C)C)ccc2O[C@@H]1CN(C)CC1CC1 | inconclusive: 23.2%
Cc1ccc(-n2nc3ccc(NC(=O)/C=C/c4ccco4)cc3n2)cc1 | inconclusive: 33.8%
C[C@H](CO)N1C[C@H](C)[C@@H](CN(C)Cc2ccc(Oc3ccccc3)cc2)Oc2ccc(NC(=O)CCC(F)(F)F)cc2C1=O | inconclusive: 29.8%
COc1ccc2c3c([nH]c2c1)[C@H](CO)N(C(C)=O)CC31CN(C(=O)c2cccc(F)c2)C1 | active: 83.5%
C[C@@H]1CN([C@H](C)CO)C(=O)Cc2cc(NC(=O)CCCCCC(=O)Nc3ccccc3N)ccc2O[C@H]1CN(C)S(=O)(=O)c1ccccc1 | inconclusive: 67.7%
CCN1[C@@H]2c3ccc(-c4cccc(F)c4)c(=O)n3C[C@@H]2[C@@H](CO)[C@@H]1C(=O)N[C@H](C)c1ccccc1 | inactive: 3.26%
COc1ccc(NC(=O)N(C)C[C@@H]2Oc3ccc(NC(=O)Cc4ccccc4)cc3C(=O)N([C@@H](C)CO)C[C@H]2C)cc1 | inactive: 12%
CCc1c(C)nc2[nH]nc(NC(=O)C(F)(F)F)n2c1=O | inconclusive: 34%
COc1ccc(OC)c(NC(=O)c2ccc3c(c2)CCN3S(C)(=O)=O)c1 | inconclusive: 23.8%
COc1ccc(COCC(O)CN2CCC(C(N)=O)CC2)cc1OC (centres undefined) | inactive: 4.79%
C[C@H](CO)N1C[C@H](C)[C@H](CN(C)C(=O)C2CCC2)Oc2ncc(-c3ccccc3F)cc2C1=O | inactive: 6.42%
CN1C(C(=O)NCCc2cccs2)CC2Cn3c(nc4cc(Cl)c(Cl)cc43)C21 (centres undefined) | active: 79.7%
C[C@H]1CCCCO[C@H](CN(C)Cc2ccncc2)[C@@H](C)CN([C@@H](C)CO)C(=O)c2cc(NC(=O)Cc3ccccc3)ccc2O1 | inconclusive: 53.3%
COc1ccc(C2(O)C(=O)Nc3ccc(C)cc32)cc1OC (centres undefined) | inconclusive: 22.4%

Copied from the list:
Under CPE inhibition, COc1ccc2nc(N3CCN(C(=O)c4ccc5ncsc5c4)CC3)sc2c1 shows inconclusive: 30.9%
Under CPE inhibition, Cc1ccc(-n2nc3ccc(NC(=O)/C=C/c4ccco4)cc3n2)cc1 shows inconclusive: 33.8%

Next compounds

SMILES | CPE inhibition
CC(=O)N1[C@@H]2CN(S(=O)(=O)c3ccccc3F)c3ccccc3[C@@H]2[C@@H]1CO | inactive: 7.88%
CN(CC(=O)Nc1ccc(F)c(F)c1F)c1ncnc2sccc12 | active: 30.6%
Cc1nnc(NC(=O)c2cc(S(=O)(=O)N3CCCCC3)ccc2Cl)s1 | inconclusive: 45.5%
CN1C(=O)c2cc(NC(=O)Nc3cccc(Cl)c3)ccc2OC[C@@H]2O[C@H](CC(=O)O)CC[C@H]21 | inconclusive: 86.7%
Cc1noc(C)c1NC(=O)N(C)C[C@@H]1OCCCC[C@@H](C)Oc2ccc(NC(=O)Nc3ccc(C(F)(F)F)cc3)cc2C(=O)N([C@H](C)CO)C[C@H]1C | inconclusive: 29%
O=C(N[C@@H]1C=C[C@H](CC(=O)N2CCc3ccccc3C2)O[C@@H]1CO)C1CCC1 | active: 98.1%
C[C@@H]1CN([C@H](C)CO)C(=O)c2cc(NS(=O)(=O)c3ccccc3)ccc2O[C@@H](C)CCCCO[C@@H]1CN(C)C(=O)c1ccccc1 | inconclusive: 54.2%
COc1ccc(-c2cc3c(=O)n(CC(=O)NCCCN4CCN(Cc5ccccc5)CC4)ncn3n2)cc1 | inactive: 18.3%
CCN(CC(=O)Nc1ccc(OC)cc1)C(=O)Cc1coc2cc(C)c(C)cc12 | inconclusive: 65.3%
CO[C@H]1CN(C)C(=O)c2ccc(NC(=O)C3CCC3)cc2OC[C@H](C)N(Cc2nccs2)C[C@H]1C | inactive: 16.3%
Oc1c(Cl)cc(Cl)cc1/C=C/c1ccc2cccc(O)c2n1 | inactive: 9.16%
C[C@@H]1CCCCO[C@@H](CN(C)S(=O)(=O)c2ccc(Cl)cc2)[C@@H](C)CN([C@@H](C)CO)C(=O)c2cc(NC(=O)Nc3ccc(F)cc3)ccc2O1 | active: 28.8%
CCc1ccc(NC(=O)C2CCCN(S(=O)(=O)c3ccc4c(c3)CCCN4C(C)=O)C2)cc1 (centres undefined) | inactive: 2.81%
Cn1nc(C(C)(C)C)cc1C(=O)N1CCCCC1c1cc(C(=O)Nc2cccc(C#N)c2)no1 (centres undefined) | inconclusive: 51.8%
CCS(=O)(=O)N[C@H]1C=C[C@@H](CC(=O)NCc2ccc(Cl)cc2)O[C@@H]1CO | inactive: 9.99%
C[C@@H]1CCCCO[C@H](CN(C)S(=O)(=O)c2cccs2)[C@@H](C)CN([C@H](C)CO)C(=O)c2cc(NC(=O)NC3CCCCC3)ccc2O1 | inconclusive: 84.9%
O=C(CN1CCOCC1)N1CCCCN2[C@H](CO)[C@@H](c3ccc(-c4ccccc4)cc3)[C@H]2C1 | active: 54.4%
COc1nc(NC(C)C)nc(N(C#N)CN2C(=O)c3ccccc3S2(=O)=O)n1 | inconclusive: 27.9%
CN1CCCCN2[C@@H](CO)[C@@H](c3ccc(C4=CCCC4)cc3)[C@@H]2C1 | inconclusive: 36.4%
CC1(C)C2CCC(CN=C(N)CSS(=O)(=O)O)C1C2 (centres undefined) | inconclusive: 49.2%
O=C1NC(=O)C2(Br)Nc3ccc(Br)cc3C(=O)C2N1 (centres undefined) | inactive: 14.5%
Cc1noc(C)c1S(=O)(=O)Nc1ccc2c(c1)C(=O)N([C@H](C)CO)C[C@H](C)[C@H](CN(C)C(=O)Nc1ccc(C(F)(F)F)cc1)OCCCC[C@@H](C)O2 | inconclusive: 48.6%
